The results in this text go back to paper PMC8760265.

Chains of the proteins cited; added tags and fusions are not shown.
UniProt Q16665: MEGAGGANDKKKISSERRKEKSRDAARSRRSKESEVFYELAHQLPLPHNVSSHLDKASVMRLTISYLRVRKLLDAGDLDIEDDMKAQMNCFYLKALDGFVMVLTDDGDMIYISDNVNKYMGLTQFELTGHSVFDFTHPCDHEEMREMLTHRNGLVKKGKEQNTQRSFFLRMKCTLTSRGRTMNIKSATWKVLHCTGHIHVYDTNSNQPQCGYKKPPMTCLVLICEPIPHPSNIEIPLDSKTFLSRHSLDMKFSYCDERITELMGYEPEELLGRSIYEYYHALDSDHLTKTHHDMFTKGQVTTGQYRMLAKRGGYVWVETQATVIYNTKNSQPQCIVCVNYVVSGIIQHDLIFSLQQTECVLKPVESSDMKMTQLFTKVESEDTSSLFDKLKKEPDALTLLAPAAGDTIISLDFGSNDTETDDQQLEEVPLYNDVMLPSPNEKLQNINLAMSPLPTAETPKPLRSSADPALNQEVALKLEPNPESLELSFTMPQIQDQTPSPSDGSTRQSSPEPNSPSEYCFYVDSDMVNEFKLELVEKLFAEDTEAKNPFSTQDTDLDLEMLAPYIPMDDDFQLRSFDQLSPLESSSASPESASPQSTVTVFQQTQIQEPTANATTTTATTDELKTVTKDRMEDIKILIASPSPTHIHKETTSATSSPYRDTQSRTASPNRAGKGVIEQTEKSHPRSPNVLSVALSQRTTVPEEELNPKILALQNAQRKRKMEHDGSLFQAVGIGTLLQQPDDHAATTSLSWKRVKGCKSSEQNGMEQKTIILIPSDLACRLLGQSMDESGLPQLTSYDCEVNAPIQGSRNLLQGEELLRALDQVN
UniProt P14618: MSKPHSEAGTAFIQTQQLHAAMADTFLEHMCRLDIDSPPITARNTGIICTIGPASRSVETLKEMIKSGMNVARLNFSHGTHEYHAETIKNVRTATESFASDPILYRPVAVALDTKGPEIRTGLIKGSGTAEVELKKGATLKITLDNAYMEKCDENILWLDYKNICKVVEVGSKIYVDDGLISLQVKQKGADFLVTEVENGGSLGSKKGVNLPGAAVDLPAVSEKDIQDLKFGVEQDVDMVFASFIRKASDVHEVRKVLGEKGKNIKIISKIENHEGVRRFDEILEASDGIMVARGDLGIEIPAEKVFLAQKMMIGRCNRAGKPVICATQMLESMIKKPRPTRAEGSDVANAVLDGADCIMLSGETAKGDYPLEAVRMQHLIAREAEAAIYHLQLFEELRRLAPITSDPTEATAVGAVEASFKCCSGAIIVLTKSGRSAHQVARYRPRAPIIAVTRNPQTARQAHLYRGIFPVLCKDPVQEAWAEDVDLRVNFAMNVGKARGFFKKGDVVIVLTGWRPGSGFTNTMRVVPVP
UniProt P78527: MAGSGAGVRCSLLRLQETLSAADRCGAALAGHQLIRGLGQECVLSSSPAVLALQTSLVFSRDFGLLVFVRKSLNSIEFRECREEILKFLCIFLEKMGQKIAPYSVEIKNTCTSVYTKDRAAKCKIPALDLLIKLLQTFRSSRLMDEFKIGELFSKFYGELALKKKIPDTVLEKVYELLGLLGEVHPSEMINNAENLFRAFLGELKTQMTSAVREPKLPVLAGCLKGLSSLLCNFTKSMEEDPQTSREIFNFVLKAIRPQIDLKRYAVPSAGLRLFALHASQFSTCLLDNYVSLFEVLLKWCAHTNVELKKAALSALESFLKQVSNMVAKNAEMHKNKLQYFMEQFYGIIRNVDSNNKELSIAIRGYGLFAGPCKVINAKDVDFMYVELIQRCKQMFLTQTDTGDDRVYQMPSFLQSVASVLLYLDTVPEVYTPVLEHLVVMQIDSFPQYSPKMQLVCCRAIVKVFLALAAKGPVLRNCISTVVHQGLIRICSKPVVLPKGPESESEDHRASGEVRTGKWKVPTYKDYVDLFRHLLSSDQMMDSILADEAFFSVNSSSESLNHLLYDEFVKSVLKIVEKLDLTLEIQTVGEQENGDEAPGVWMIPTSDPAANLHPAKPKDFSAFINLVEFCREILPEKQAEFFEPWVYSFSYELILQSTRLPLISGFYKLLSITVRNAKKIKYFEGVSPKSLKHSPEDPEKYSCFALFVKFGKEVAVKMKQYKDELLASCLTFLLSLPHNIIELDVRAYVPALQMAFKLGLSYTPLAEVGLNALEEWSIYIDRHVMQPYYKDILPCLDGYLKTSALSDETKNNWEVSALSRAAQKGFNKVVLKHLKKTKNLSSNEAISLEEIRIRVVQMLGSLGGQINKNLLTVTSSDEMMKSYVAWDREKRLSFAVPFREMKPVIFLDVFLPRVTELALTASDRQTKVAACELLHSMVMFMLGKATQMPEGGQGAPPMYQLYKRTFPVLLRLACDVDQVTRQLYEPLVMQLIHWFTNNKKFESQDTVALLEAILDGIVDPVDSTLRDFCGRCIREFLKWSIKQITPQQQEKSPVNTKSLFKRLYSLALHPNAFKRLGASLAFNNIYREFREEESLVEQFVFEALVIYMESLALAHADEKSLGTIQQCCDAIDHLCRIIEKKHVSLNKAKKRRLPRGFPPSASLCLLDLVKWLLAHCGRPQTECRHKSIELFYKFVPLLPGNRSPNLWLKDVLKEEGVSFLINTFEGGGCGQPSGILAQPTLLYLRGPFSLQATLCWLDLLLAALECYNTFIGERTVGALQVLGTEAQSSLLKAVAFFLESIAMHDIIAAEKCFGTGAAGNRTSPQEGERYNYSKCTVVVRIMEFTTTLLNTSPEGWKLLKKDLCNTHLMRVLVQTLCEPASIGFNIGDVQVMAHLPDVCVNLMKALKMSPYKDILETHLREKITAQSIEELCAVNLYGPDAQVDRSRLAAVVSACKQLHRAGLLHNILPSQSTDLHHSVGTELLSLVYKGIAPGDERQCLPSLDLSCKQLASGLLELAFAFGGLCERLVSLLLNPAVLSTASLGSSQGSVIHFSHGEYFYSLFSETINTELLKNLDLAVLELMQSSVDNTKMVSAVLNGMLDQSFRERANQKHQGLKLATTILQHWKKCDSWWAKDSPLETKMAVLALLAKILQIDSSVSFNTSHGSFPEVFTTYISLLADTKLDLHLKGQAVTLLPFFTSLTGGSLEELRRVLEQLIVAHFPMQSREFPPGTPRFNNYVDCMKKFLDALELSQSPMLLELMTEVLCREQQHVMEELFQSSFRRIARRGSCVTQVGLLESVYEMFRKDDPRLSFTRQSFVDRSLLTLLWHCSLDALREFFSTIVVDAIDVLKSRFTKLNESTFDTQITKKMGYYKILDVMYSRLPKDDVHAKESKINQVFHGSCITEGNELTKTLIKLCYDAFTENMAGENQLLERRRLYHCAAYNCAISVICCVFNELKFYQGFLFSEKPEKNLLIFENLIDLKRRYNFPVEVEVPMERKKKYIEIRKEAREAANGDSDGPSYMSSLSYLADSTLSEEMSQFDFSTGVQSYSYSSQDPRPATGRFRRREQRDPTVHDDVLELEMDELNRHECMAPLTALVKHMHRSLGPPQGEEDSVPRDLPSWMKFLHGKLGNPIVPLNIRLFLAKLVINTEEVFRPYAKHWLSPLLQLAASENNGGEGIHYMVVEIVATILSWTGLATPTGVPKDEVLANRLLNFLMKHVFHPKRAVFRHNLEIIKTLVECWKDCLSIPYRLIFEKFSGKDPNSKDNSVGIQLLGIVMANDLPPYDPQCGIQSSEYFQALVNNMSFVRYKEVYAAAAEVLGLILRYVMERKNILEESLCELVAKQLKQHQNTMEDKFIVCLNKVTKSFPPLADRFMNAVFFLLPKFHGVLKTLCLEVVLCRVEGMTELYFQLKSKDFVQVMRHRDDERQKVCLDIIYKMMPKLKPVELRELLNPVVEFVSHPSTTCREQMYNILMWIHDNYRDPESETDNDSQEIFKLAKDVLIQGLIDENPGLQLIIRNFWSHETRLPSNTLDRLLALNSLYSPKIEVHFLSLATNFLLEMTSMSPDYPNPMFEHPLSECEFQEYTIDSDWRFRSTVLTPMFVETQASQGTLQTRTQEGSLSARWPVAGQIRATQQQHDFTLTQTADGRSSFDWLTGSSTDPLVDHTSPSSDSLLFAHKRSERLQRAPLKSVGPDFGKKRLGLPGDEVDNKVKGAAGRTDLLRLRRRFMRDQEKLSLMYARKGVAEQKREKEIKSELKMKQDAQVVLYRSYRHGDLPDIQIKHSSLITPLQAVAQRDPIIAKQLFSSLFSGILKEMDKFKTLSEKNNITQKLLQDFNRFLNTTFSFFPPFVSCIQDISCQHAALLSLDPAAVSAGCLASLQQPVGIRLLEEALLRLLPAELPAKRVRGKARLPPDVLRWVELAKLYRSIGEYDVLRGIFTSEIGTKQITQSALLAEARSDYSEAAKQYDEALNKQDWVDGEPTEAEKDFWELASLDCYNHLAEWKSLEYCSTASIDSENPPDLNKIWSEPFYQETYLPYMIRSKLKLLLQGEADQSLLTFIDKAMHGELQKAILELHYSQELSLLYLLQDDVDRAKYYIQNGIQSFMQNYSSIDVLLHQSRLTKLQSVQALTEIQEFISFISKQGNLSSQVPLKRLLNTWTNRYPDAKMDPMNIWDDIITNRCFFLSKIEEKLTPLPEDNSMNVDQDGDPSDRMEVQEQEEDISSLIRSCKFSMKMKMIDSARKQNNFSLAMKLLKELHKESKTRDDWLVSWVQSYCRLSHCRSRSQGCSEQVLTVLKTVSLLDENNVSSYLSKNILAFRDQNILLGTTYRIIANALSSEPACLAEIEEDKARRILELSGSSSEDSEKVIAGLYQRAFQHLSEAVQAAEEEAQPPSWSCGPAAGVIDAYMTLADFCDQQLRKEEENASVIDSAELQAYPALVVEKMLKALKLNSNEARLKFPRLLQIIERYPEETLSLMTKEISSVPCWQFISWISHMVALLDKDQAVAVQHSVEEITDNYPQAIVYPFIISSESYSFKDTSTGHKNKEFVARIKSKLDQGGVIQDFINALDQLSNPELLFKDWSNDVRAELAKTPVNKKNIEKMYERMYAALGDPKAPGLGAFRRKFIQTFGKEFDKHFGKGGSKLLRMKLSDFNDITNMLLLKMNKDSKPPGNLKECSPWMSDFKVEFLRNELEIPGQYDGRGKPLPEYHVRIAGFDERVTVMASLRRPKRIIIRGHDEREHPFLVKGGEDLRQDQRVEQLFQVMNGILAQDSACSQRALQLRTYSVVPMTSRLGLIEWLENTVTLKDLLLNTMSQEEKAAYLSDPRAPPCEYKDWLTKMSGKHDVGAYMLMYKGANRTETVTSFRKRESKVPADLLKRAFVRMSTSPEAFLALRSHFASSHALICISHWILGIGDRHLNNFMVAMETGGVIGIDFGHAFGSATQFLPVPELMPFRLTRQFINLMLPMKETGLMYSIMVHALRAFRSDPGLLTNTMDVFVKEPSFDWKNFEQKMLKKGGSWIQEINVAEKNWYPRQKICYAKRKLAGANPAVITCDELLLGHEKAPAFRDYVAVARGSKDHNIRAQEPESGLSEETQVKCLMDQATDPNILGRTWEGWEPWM
UniProt P12956: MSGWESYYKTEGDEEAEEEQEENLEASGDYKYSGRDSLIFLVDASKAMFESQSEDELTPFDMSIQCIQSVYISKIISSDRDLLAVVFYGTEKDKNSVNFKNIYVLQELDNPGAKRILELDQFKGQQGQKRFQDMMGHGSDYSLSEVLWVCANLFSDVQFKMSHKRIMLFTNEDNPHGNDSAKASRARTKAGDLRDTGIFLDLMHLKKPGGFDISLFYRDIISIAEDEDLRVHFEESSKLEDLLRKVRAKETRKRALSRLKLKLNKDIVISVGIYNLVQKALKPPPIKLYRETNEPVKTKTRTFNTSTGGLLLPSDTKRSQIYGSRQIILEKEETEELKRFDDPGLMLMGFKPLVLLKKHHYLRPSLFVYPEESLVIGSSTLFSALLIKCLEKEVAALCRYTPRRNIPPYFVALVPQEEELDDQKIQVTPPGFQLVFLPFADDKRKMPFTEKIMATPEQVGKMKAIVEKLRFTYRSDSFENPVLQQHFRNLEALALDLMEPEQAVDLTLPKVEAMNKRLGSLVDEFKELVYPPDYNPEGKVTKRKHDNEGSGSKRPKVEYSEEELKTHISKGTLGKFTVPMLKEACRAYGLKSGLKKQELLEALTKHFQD
UniProt Q9Y265: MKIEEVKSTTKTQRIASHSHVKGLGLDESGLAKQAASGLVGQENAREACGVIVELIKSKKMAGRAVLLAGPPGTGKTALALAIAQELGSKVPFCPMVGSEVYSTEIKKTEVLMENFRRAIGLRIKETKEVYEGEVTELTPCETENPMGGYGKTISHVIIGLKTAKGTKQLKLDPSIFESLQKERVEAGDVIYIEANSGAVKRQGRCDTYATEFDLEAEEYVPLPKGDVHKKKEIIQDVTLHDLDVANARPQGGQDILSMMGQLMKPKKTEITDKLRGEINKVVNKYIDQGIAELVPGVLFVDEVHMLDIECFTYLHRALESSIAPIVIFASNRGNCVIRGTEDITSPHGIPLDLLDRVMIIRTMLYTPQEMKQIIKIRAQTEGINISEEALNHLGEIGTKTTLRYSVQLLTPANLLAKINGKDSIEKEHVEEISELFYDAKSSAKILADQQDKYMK

These are yes or no findings as the source states them, for the method shown. In cells and extracts the contact can be indirect. Here binding means that the protein was enriched with, or labelled near, the bait; the list need not be complete.

For this test, the target named is Hypoxia-inducible factor-1α (HIF-1α) (human (endogenous in MDA-MB-231)) (UniProt Q16665). Description: affinity purification with mass spectrometry; RIME: MDA-MB-231 cells treated with DMOG (1 mM) or DMSO for 8 h, cross-linked with 1% formaldehyde, nuclear fraction sonicated, immunoprecipitated with bead-prebound HIF-1α antibody; a single sample for each condition.
As to “Tripartite motif containing protein 28 (TRIM28) (from UniProt Q13263 1-835)”, the binding entry is “binds”. Under PKM (from UniProt P14618 1-531) stands “binds”. Regarding “DNA-dependent protein kinase catalytic subunit (DNA-PKcs) (from UniProt P78527 1-4128)”, the binding entry is listed as “binds”.

As to KU86 (from UniProt P13010 1-732), the binding entry is on record as “binds”. The same measure for KU70 (from UniProt P12956 1-609): “binds”. The same measure for PARP1 (from UniProt P09874 1-1014): “binds”; for “RUVBL1/PONTIN (from UniProt Q9Y265 1-456)”: “binds”.
